Results published in patent US11667697.
No constants are given. Whether binding was seen depends on the method and setting. Some binding calls cover weakened binding; strength is not graded here.

What was measured:
[1] = target: VACV H3 protein (vaccinia virus) (UniProt P07240); test: lysate ELISA
[2] = target: VACV H3 protein (vaccinia virus) (UniProt P07240); test: antigen ELISA/array/BLI
[3] = target: VACV A33 protein (vaccinia virus) (UniProt P68617); test: antigen ELISA/array/BLI

Binder	binding [1]	binding [2]	binding [3]
MPXV-79 (antibody, V domains shown) VH: QVQLVQSGAEVKKPGASVKVSCKASGYSFRSNGISWVRQAPGQGFEWLGWIAAYNGDTKYVQKFQGRLTMTTDTSTDTAYMELWSLRSDDTAVYYCARDPKLGRKGSAFDIWGQGTLVIVSS VL: EIVLTQSPATLSLSPGGRATLSCRASQSVGNYLTWYQQKPGQAPRLLIFDGSTRATGIPARFSGSGSGTDFTLTISSLEPEDFAVYYCLQRSDLYTFGQGTKVDIK	binds	binds	
VACV-315 (antibody, V domains shown) VH: EVQLLESGGGLVQPGGSLKLSCAASGFIFSNYAMGWVRQAPGKGLEWVSALSASDGVTSYADSVKGRFTISRDNSKNTMYLQMNRLRTEDTAIYFCAKGRARVNNIYRYFDHWGQGTLVTVSS VL: QSVLTQPASVSGSPGQSITISCTGTSSDVGAYTFVSWYQHHPGKAPKLIIYEVSNRPSGVSDRFSGSKSGNTASLTISGLQAEDEADYYCNSYTTTSPWVFGGGTQLTVL	binds	binds	
MPXV-39 (antibody, V domains shown) VH: QVQLQQWGAGLLKPSETLSLTCAIYGGSLSGQYWSWIRQPPGRGLEWIGEIHHKGRTNYNPSLKSRVTISIDTSQRQFSLRLTSVSAADTAVYYCASGNYRLGQGTLVTF VL: DVVLTQSPLTLPVTLGQPASISCRSSQSLVYSDGDTYLNWFQQRPGQAPRRLIYKVSKRDFGVPDRFSGSGSGTDFTLRISRVEAEDVGVYYCMQGTHWPRTFGQGTQVDIK			binds
